In article PMC6700064 one finds binding data, which are given here for two substances.

By UniProt entry, the sequences of proteins in these tests, tags left out.
UniProt Q9H1P3: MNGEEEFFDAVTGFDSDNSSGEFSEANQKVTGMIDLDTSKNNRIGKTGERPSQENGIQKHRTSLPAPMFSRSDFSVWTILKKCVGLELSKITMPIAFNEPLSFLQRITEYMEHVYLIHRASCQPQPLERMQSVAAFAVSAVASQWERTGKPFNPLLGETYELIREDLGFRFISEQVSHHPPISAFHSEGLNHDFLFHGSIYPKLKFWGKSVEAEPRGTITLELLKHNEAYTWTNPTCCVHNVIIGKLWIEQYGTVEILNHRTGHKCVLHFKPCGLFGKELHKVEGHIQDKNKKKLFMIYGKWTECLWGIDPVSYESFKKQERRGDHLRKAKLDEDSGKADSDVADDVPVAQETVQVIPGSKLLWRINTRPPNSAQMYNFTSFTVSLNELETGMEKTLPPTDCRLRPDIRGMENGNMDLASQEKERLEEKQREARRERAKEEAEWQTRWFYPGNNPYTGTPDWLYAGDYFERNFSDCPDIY
UniProt P31939: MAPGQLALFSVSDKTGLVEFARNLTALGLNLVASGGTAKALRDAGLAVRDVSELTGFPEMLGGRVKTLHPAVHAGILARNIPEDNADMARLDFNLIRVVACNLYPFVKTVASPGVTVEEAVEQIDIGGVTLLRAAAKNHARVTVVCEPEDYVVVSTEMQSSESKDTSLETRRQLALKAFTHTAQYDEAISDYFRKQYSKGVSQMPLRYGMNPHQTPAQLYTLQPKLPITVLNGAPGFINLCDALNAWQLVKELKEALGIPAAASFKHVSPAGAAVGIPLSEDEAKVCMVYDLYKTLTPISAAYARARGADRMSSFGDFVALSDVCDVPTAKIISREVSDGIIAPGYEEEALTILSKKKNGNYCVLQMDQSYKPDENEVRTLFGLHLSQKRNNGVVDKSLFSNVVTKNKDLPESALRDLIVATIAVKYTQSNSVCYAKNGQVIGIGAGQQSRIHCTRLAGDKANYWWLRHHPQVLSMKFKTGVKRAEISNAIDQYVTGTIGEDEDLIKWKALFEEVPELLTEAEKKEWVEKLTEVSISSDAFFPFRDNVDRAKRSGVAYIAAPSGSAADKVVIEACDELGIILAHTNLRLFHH

No constants are given. Whether binding was seen depends on the method and setting. Binding seen in cells or lysates may run through a third protein. Some results given as binding are weak or reduced against the parent protein; the word gives no strength.

Test [1] deals with Flag-tagged OSBPL2 (oxysterol-binding protein like 2) (UniProt Q9H1P3). Kind of test: co-IP; HEK293Ta cells expressing HA-ATIC or HA-ATIC truncations and Flag-OSBPL2; RIPA lysis buffer; Anti-FLAG M2 magnetic beads overnight at 4 °C; washed three times with RIPA; Western blot. (In general: In western blotting, separated proteins are transferred to a membrane and probed.)
The target of another test is GST-OSBPL2 (UniProt Q9H1P3). Kind of test: pull-down; GST-OSBPL2 as bait, lysate of E. coli expressing His-ATIC; incubated with Anti-His, Anti-GST and Protein A/G overnight at 4 °C; washed with RIPA Lysis Buffer three times; only the target purified.

With “HA-ATIC (5-aminoimidazole-4-carboxamide ribonucleotide formyltransferase/inosine monophosphate cyclohydrolase) (from UniProt P31939 1-592) (enzyme)”, the binding entry in test [1] is recorded as “binds”.
On to “His-ATIC (from UniProt P31939 1-592) (enzyme)”, for which the binding result with GST-OSBPL2 is listed as “binds”.
